In PubChem BioAssay AID977606 (Broad Institute, 2014):
About 430 (29%) of roughly 1,500 compounds were called active. The rule behind the calls is not given here. The entries are a selection whose mix differs from that of the whole data set. Results with a measured potency or affinity are listed apart.

Experiment: insulin secretion activators without glucose, dose response, counter-screen for glucose-dependent insulin secretion activators, cell-based, INS-1E, Gaussia luciferase, luminescence, cherry-pick (AID 977606);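 note: 0% = median of neutral control wells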
Conditions: INS-1E Gaussia luciferase insulin secretion, no glucose; at 35 µM (top of the series)

| SMILES | activation |
| --- | --- |
| c1ccc(N2[C@@H]3CC[C@H]2c2ccncc2C3)cc1 | inactive: -3.04% |
| COC(=O)C[C@H]1CC[C@H]2NC[C@@H](O)COC[C@@H]2O1 | inactive: -0.907% |
| CC(C)c1cc(Br)c(NC(=O)Nc2cccnc2)c(Br)c1 | inactive: -9.66% |
| Cc1cccc(CN2CCN(C(=O)Cc3ccccc3)CC2)c1 | inactive: -1.48% |
| CC(=NC(C)c1ccccc1)c1c(O)[nH]c(=O)[nH]c1=O (stereo not drawn) | inactive: 7% |
| O=C(c1cccc2ccccc12)C1CCCN(Cc2ccon2)C1 (stereo not drawn) | inactive: 5.89% |
| CCC(=NC(C)c1ccccc1)c1c(O)[nH]c(=O)[nH]c1=O (stereo not drawn) | inactive: -0.859% |
| CC(C)Nc1nc(Cl)nc(NC(C)C)n1 | inactive: 5.36% |
| COc1ccc(C(=O)C2CCCN(Cc3ccc(C)s3)C2)cc1OC (stereo not drawn) | inactive: -10.2% |
| COc1ccc(CN2CCN(Cc3ccccc3F)CC2)cc1 | inactive: 8.57% |
| Cc1nc2ccccc2c(=O)n1-c1ccc(Cl)c(Cl)c1 | inactive: 3.66% |
| C=CCSc1nc2c(c(-c3ccsc3)c1C#N)CN(C)CC2 | inactive: -3.9% |
| CCNc1nc(Cl)nc(NC(C)C)n1 | inactive: -11.8% |
| Cc1cc(Br)cn2c(CC(=O)N3CCCCC3)c(-c3ccc(F)cc3)nc12 | inactive: -11.5% |
| COc1nc(NC(C)C)nc(NC(C)C)n1 | inactive: -3.46% |
| COc1cc(C(=O)OC2C[C@H]3CC[C@@H](C2)N3C)ccc1O (stereo partly drawn) | inactive: -12.3% |
| Cc1[nH]c2ccccc2c1CCNCc1cccnc1 | inactive: -6.49% |
| C=C(C)Cn1c(=O)n(CC2CS2)c2ccccc21 (stereo not drawn) | inactive: 17.1% |

Quoted at random: two entries already listed.

| SMILES | activation |
| --- | --- |
| COC(=O)C[C@H]1CC[C@H]2NC[C@@H](O)COC[C@@H]2O1 | inactive: -0.907% |
| CC(=NC(C)c1ccccc1)c1c(O)[nH]c(=O)[nH]c1=O (stereo not drawn) | inactive: 7% |
